The list does not hold the whole screen: it gathers tests that were run many times, whatever their T/C, doses with no T/C, and many T/C values between a quarter and a half above the control. Further doses and runs are listed elsewhere. T/C is the treated group as % of the vehicle group. Some doses have a count of surviving animals in place of a T/C: the source files T/C as zero there, which appears to mark a toxic dose or a test without result, not a measured value. Some survivor counts are full or nearly so, which does not show that the dose was tolerated: survival well below the control is almost never listed, so the zero probably covers shortened survival too. Survivors were counted at the toxicity check, usually on the fifth day, unless a day is given; later deaths do not show. Schedule codes are those of the source, read here as Q, the interval in days (D) or hours (H), X, the number of doses. Some entries hold several experiments; the values are given in rising order. Signs of the kind (2×) say how often a value occurs here. For survival time, this PubChem deposit counts one and a half times the control or more as active, and values a quarter to a half above the control carry no call in these data; other NCI protocols may use other cut-offs.
System: CD2F1 mice, L1210 leukemia ip, survival T/C
Test: NCI In Vivo Anticancer Drug Screen. Data for tumor model L1210 Leukemia (intraperitoneal) in CD2F1 (CDF1) mice
Details: higher T/C = longer survival
How it was run: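 Implant tumor; dose compound or vehicle; measure endpoint in both groups; report treated divided by control.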

[1] = T/C endpoint: mean survival time, dose: 200.0 mg/kg/injection, schedule: Q01DX001 (ip), vehicle: saline
[2] = T/C endpoint: mean survival time, dose: 400.0 mg/kg/injection, schedule: Q01DX001 (ip), vehicle: saline
[3] = T/C endpoint: mean survival time, dose: 200.0 mg/kg/injection, schedule: Q04DX003 (ip), vehicle: Klucel (hydroxypropylcellulose) (HPC)
[4] = T/C endpoint: mean survival time, dose: 400.0 mg/kg/injection, schedule: Q04DX003 (ip), vehicle: Klucel (hydroxypropylcellulose) (HPC)
[5] = T/C endpoint: mean survival time, dose: 400.0 mg/kg/injection, schedule: Q04DX003 (ip), vehicle: saline with Tween-80
[6] = T/C endpoint: mean survival time, dose: 200.0 mg/kg/injection, schedule: Q04DX003 (ip), vehicle: saline with Tween-80
[7] = T/C endpoint: mean survival time, dose: 100.0 mg/kg/injection, schedule: Q04DX002 (ip), vehicle: saline with Tween-80
[8] = T/C endpoint: mean survival time, dose: 200.0 mg/kg/injection, schedule: Q04DX002 (ip), vehicle: saline with Tween-80
[9] = T/C endpoint: mean survival time, dose: 400.0 mg/kg/injection, schedule: Q04DX002 (ip), vehicle: saline with Tween-80
[10] = T/C endpoint: mean survival time, dose: 100.0 mg/kg/injection, schedule: Q04DX003 (ip), vehicle: saline with Tween-80
[11] = T/C endpoint: mean survival time, dose: 400.0 mg/kg/injection, schedule: Q01DX009 (ip), vehicle: other

CCOC1NC(=O)Oc2ccccc21 (stereo unspecified)
survivor count (T/C endpoint: median survival time, dose: 400.0 mg/kg/injection, schedule: Q01DX005 (ip), vehicle: Klucel (hydroxypropylcellulose) (HPC)): 0 of 6
survivor count (T/C endpoint: median survival time, dose: 800.0 mg/kg/injection, schedule: Q01DX005 (ip), vehicle: Klucel (hydroxypropylcellulose) (HPC)): 0 of 6

CSc1ncc(Br)c(Sc2nc(N)nc3nc[nH]c23)n1
T/C (T/C endpoint: mean survival time, dose: 6.7 mg/kg/injection, schedule: Q01DX001 (ip), vehicle: saline with Tween-80): 141 % of control
T/C (T/C endpoint: mean survival time, dose: 10.0 mg/kg/injection, schedule: Q01DX001 (ip), vehicle: saline with Tween-80): 148 % of control

Cc1nc(N)nc2ccccc12
survivor count [1]: 0 of 4
survivor count [2]: 0 of 4

CCOC/C(C)=C/Cl
survivor count (T/C endpoint: mean survival time, dose: 400.0 mg/kg/injection, schedule: Q01DX009 (ip), vehicle: acetone): 0 of 6

CCOC(=O)c1cnc2c(cnn2CC)c1N1CCN(CCO)CC1
survivor count [3]: 0 of 3
survivor count [4]: 0 of 3

Cc1c([C@H](C)[C@@H]2NC[C@@H](C)C[C@H]2O)ccc2c1C[C@H]1[C@H]2CC=C2C[C@@H](O)CC[C@@]21C
survivor count (T/C endpoint: mean survival time, dose: 10.0 mg/kg/injection, schedule: Q01DX009 (ip), vehicle: Klucel (hydroxypropylcellulose) (HPC)): 0 of 6
survivor count (T/C endpoint: mean survival time, dose: 10.0 mg/kg/injection, schedule: Q04DX003 (ip), vehicle: Klucel (hydroxypropylcellulose) (HPC)): 0 of 6
survivor count (T/C endpoint: mean survival time, dose: 20.0 mg/kg/injection, schedule: Q04DX003 (ip), vehicle: Klucel (hydroxypropylcellulose) (HPC)): 0 of 6
survivor count (T/C endpoint: mean survival time, dose: 40.0 mg/kg/injection, schedule: Q04DX003 (ip), vehicle: Klucel (hydroxypropylcellulose) (HPC)): 0 of 6
survivor count (T/C endpoint: mean survival time, dose: 50.0 mg/kg/injection, schedule: Q01DX001 (ip), vehicle: saline with Tween-80): 0 of 6
survivor count (T/C endpoint: mean survival time, dose: 100.0 mg/kg/injection, schedule: Q01DX001 (ip), vehicle: saline with Tween-80): 0 of 6
survivor count (T/C endpoint: mean survival time, dose: 100.0 mg/kg/injection, schedule: Q04DX003 (ip), vehicle: Klucel (hydroxypropylcellulose) (HPC)): 0 of 6
survivor count (T/C endpoint: mean survival time, dose: 200.0 mg/kg/injection, schedule: Q01DX001 (ip), vehicle: saline with Tween-80): 0 of 6
survivor count [3]: 0 of 6
survivor count [4]: 0 of 6

C[n+]1ccc2ccccc2c1SC1CCC2CC3CC2C1C3 (stereo unspecified)
survivor count (T/C endpoint: mean survival time, dose: 40.0 mg/kg/injection, schedule: Q01DX009 (iv), vehicle: methylcellulose (MC)): 3 of 6

Cc1ccoc1
survivor count (T/C endpoint: median survival time, dose: 133.3 mg/kg/injection, schedule: Q03HX015 (ip), vehicle: saline with Tween-80): 3 of 6

Nc1cc2[nH]cnc2c([Se])n1
survivor count [5]: 1 of 6

CCN(CC)C1=C(Cl)C(=O)C(=O)c2cccnc21
survivor count (T/C endpoint: mean survival time, dose: 18.8 mg/kg/injection, schedule: Q01DX009 (ip), vehicle: saline): 4 of 6
survivor count (T/C endpoint: mean survival time, dose: 37.5 mg/kg/injection, schedule: Q01DX009 (ip), vehicle: saline): 2 of 6

CC(C)C(C=O)C(O)(C(F)(F)F)C(F)(F)Cl (stereo unspecified)
survivor count [6]: 0 of 6
survivor count [5]: 0 of 6

ClC(Cl)=[C](Cl)[Hg][C](Cl)=C(Cl)Cl
survivor count (T/C endpoint: mean survival time, dose: 12.5 mg/kg/injection, schedule: Q01DX009 (ip), vehicle: saline with Tween-80): 2 of 6
survivor count (T/C endpoint: mean survival time, dose: 25.0 mg/kg/injection, schedule: Q01DX009 (ip), vehicle: saline with Tween-80): 0 of 6
survivor count (T/C endpoint: mean survival time, dose: 25.0 mg/kg/injection, schedule: Q04DX002 (ip), vehicle: saline with Tween-80): 1 of 3
survivor count (T/C endpoint: mean survival time, dose: 50.0 mg/kg/injection, schedule: Q04DX002 (ip), vehicle: saline with Tween-80): 0 of 3
survivor count [7]: 0 of 3
survivor count [8]: 0 of 3
survivor count [9]: 0 of 3

O=C(O)CC(O)C(=O)O.[Fe] (stereo unspecified)
survivor count [1]: 3 of 6
survivor count [2]: 1 of 6

Clc1ccc2c(c1)Cc1cc(N=Cc3ccccc3Cl)ccc1-2
survivor count (T/C endpoint: mean survival time, dose: 225.0 mg/kg/injection, schedule: Q01DX009 (ip), vehicle: saline with Tween-80): 1 of 6
survivor count (T/C endpoint: mean survival time, dose: 385.0 mg/kg/injection, schedule: Q01DX009 (ip), vehicle: saline with Tween-80): 0 of 6

CC(C)(C)C1CC(C(F)(F)F)(C(F)(F)F)OS(=O)O1 (stereo unspecified)
survivor count [10]: 6 of 6
survivor count [6]: 1 of 6
survivor count [5]: 0 of 6

Nc1ccc(-n2nc3ccc4ccccc4c3n2)cc1
survivor count [7]: 2 of 3
survivor count [8]: 0 of 3
survivor count [9]: 0 of 3

[Cl][Pt+2][Cl].[NH-]c1cc(F)ccc1F.[NH-]c1cc(F)ccc1F
survivor count (T/C endpoint: mean survival time, dose: 100.0 mg/kg/injection, schedule: Q04DX003 (ip), vehicle: distilled water + Tween-80): 0 of 6
survivor count (T/C endpoint: mean survival time, dose: 200.0 mg/kg/injection, schedule: Q04DX003 (ip), vehicle: distilled water + Tween-80): 0 of 6

OCc1cc(Cl)cc(Cl)c1O
survivor count [11]: 1 of 6
survivor count (T/C endpoint: mean survival time, dose: 400.0 mg/kg/injection, schedule: Q04DX003 (ip), vehicle: other): 3 of 6

O=C(CCl)NC(=O)NC1=C(Cl)C(=O)c2ccccc2C1=O
survivor count (T/C endpoint: mean survival time, dose: 100.0 mg/kg/injection, schedule: Q01DX001 (ip), vehicle: other): 0 of 6
survivor count (T/C endpoint: mean survival time, dose: 200.0 mg/kg/injection, schedule: Q01DX001 (ip), vehicle: other): 0 of 6
survivor count (T/C endpoint: mean survival time, dose: 400.0 mg/kg/injection, schedule: Q01DX001 (ip), vehicle: other): 0 of 6

CC#CC(=O)O
survivor count (T/C endpoint: mean survival time, dose: 200.0 mg/kg/injection, schedule: Q04DX002 (ip), vehicle: saline): 1 of 3
survivor count (T/C endpoint: mean survival time, dose: 400.0 mg/kg/injection, schedule: Q04DX002 (ip), vehicle: saline): 0 of 3

CC(O)CC1CCCC(CC(C)O)N1 (stereo unspecified)
survivor count (T/C endpoint: mean survival time, dose: 75.0 mg/kg/injection, schedule: Q01DX001 (ip), vehicle: saline): 0 of 6 and 1 of 6
survivor count (T/C endpoint: mean survival time, dose: 80.0 mg/kg/injection, schedule: Q01DX001 (ip), vehicle: saline): 1 of 6
survivor count (T/C endpoint: mean survival time, dose: 150.0 mg/kg/injection, schedule: Q01DX001 (ip), vehicle: saline): 0 of 6 (2×)
survivor count (T/C endpoint: mean survival time, dose: 300.0 mg/kg/injection, schedule: Q01DX001 (ip), vehicle: saline): 0 of 6 (2×)

CC(CCC(C)(C)O)C1CCC2C3C(O)CC4CCCCC4(C)C3CC(O)C12C (stereo unspecified)
survivor count [10]: 6 of 6
survivor count [6]: 6 of 6

CCCCCCCCCCCCCCCC(=O)N(C(C)CCCN(CC)CC)C(C)CCCN(CC)CC (stereo unspecified)
survivor count (T/C endpoint: mean survival time, dose: 50.0 mg/kg/injection, schedule: Q01DX009 (ip), vehicle: Klucel (hydroxypropylcellulose) (HPC)): 5 of 6
survivor count (T/C endpoint: mean survival time, dose: 100.0 mg/kg/injection, schedule: Q01DX009 (ip), vehicle: Klucel (hydroxypropylcellulose) (HPC)): 0 of 6

N#CCc1ccccc1
survivor count (T/C endpoint: mean survival time, dose: 40.0 mg/kg/injection, schedule: Q01DX001 (ip), vehicle: saline): 0 of 6

O=NN(CCCl)C(=O)NCc1ccc[n+]([O-])c1
T/C (T/C endpoint: mean survival time, dose: 1.56 mg/kg/injection, schedule: Q01DX001 (ip), vehicle: water): 134 % of control
T/C (T/C endpoint: mean survival time, dose: 3.13 mg/kg/injection, schedule: Q01DX001 (ip), vehicle: water): 139 % of control
survivor count (T/C endpoint: mean survival time, dose: 50.0 mg/kg/injection, schedule: Q01DX001 (ip), vehicle: water): 4 of 6 and 6 of 6
survivor count (T/C endpoint: mean survival time, dose: 100.0 mg/kg/injection, schedule: Q01DX001 (ip), vehicle: water): 5 of 6

O=C(O)C(Cl)(c1ccccc1)C(Cl)c1ccccc1 (stereo unspecified)
survivor count [5]: 1 of 6

NC1=NC(=O)N2CC12 (stereo unspecified)
T/C (T/C endpoint: mean survival time, dose: 100.0 mg/kg/injection, schedule: Q01DX009 (ip), vehicle: other): 130 % of control
T/C (T/C endpoint: mean survival time, dose: 100.0 mg/kg/injection, schedule: Q01DX009 (ip), vehicle: saline): 128 and 135 % of control
T/C (T/C endpoint: mean survival time, dose: 200.0 mg/kg/injection, schedule: Q01DX009 (ip), vehicle: other): 146 % of control
survivor count [11]: 4 of 10
survivor count (T/C endpoint: mean survival time, dose: 400.0 mg/kg/injection, schedule: Q01DX009 (ip), vehicle: saline): 0 of 6
